Experimental data as given in patent US9668984B2, “Use of compounds to inhibit 5 α-reductase enzyme activity, and pharmaceutical and cosmetic compostions containing them” (GIULIANI S.P.A., priority 2008, dated 2017).
“Also recorded” adds a separate entry of the source. At least one compound was matched to its structure with a doubt left. Some entries share one result that the patent states for a list of compounds.

Tested on: 5α-reductase
Assay: Modulation of 5α-reductase activity (testosterone to DHT conversion, ELISA) in mouse fibroblasts after 48 hours of treatment
Type: cell-based
Conditions: 0.1 mg/ml
Method: Assessment of the modulation of 5α-reductase activity after treatment for 48 hours with the above-stated compounds in a cell line of mouse fibroblasts.
For this test, the fibroblasts were pretreated with testosterone to increase the basal production of 5α-reductase, then they were treated with the above-mentioned compounds for 48 hours.
At the end of the treatment, the conversion of testosterone into DHT was measured in the treated and untreated cell cultures, using a two-way ELISA. This procedure enables an estimation of the percentage inhibition or stimulation of the specific activity of 5α-reductase. […]
At the end of the experiment, a cell count was conducted to assess any cytotoxic effects. The of DHT and testosterone content was measured using immunodiagnostic tests (ELISA) in the extracellular (conditioned growth media) and in the intracellular (cell extracts) compartments. […]
The two hormones, DHT and testosterone, were measured both in the supernatant (extracellular DHT/testosterone) and in the cell extracts (intracellular DHT/testosterone).
It is therefore of fundamental importance to determine the quantity of testosterone remaining at the end of the test in order to distinguish it from the newly-synthesised DHT. […]

`C/C=C/C=C/C=C/CO` [2,4,6-octatrien-1-ol, 2E,4E,6E-Octatrien-1-ol] was tested, and the “Inhibition of 5α-reductase activity in vitro (result in words)” value (mouse fibroblasts Balb/c-3T3, versus untreated control) was “inhibited the activity in vitro of 5α-reductase significantly; also recorded: significantly inhibiting” and the “% inhibition of 5α-reductase” value (pre-incubation for 24 hours with testosterone 10 ng/ml, confidence interval) was 27-48%.
